Among all 53,000 sequences or so, about 3,700 (7%) were called active.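 Rule for the calls: active = gene knockdowns whose robust z-score for IL-1 alpha signal is at least 2 or at most -2, so actives lie on both sides; inactive = the rest.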 The list shows a part of the results.

This experiment can be described thus: Components of the Cytosolic LPS Sensing Pathway: Gene Identification via Genome-wide siRNA Screen.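 Note: robust z of the log signal after scaling to non-targeting control siRNA wells of the plate.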 The note with it: RAW264.7 macrophages, IL-1a HTRF, actives lie on both sides, screened at 100 nM (by protocol), cells primed 5 h with Pam3CSK4 first. The method in brief: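 Supernatant IL-1a by HTRF from RAW264.7 cells primed with Pam3CSK4 (5 hours) and transfected with LipidA (24 hour) after 48h siRNA knockdown at 100 nM; cell viability checked with CellTiter-Glo.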
In general terms: In TR-FRET formats the signal depends on donor and acceptor labels being close together.
Regarding GCAACAAUAAAUCGUACAGTT against Nupr1, the z-score is inactive: 0.246. The value for CCUACCCGAUUAUUCUUACTT against C2cd2l was inactive: 0.125; that for GGCUAUGCAAGUGGAGAGCTT against Nfat5 was inactive: -0.311; that for GCCUAUGACUACCUCGAGUTT against Rhob was active: -2.01. The value for GCUCAUCUAAGAGGAAUGATT against Jtb was inactive: -1.81; that for GGAGAGGAACUCAGAACCATT against Lrmp was inactive: -0.576. The value for GGAUUUUCUAAAAAGACACTT against Slc23a1 was inactive: 0.623; that for GGUUAUGUGGAUGAAAGAUTT against Mybpc2 was inactive: -0.89. Turning to GGAUGGUAUAUGAUGAGAUTT against Slc7a15, the z-score was inactive: -1.57.

In the case of CCCUGGAAAUUAGAUAACATT against Aldob, the z-score was inactive: 0.74. The value for GCACGUUAGUAAGUAGUUATT against Ubtd2 was inactive: 1.04; that for GCAUCUCAGCUCUGAUUUATT against Fgfbp3 was inactive: 0.758. The value for GGACCUGACCAAUUGAGCUTT against Rusc1 was inactive: -0.799; that for GGUGCAAGCUUUGAGAGGATT against Hsf4 was inactive: 0.853; that for GACCUUCGUUAGCAUUACGTT against Pfn1 was inactive: 0.65. Take CCCUGAAUGUUCGAGGAGATT against Ghdc: the z-score is inactive: 0.00147. CGUGUUGUACUACGUAUAUTT against Abtb1: the z-score was inactive: -0.172. Take GCCACUUUUACCCUCAAGCTT against Zgrf1: the z-score is inactive: -0.628.

On to CGUAGAGCUCAGAGAAUUCTT against Dhx58, for which the z-score was inactive: 0.614.

Consider CGGAGUAGCGAUUAUGGUGTT against Art5, for which the z-score is inactive: -0.535. The value for CGGGAUAGACAUGAGAGCUTT against Cemip2 was inactive: -0.37. The value for GGUGCUUUUGCUUAGUGAUTT against Impg2 was inactive: 0.433.

Consider GGUCUAUGUACUGUCCUGATT against Otop2, for which the z-score is inactive: 0.0413.

Take GGAGCCCUGUGUCUUGAGUTT against Ccl19: the z-score was inactive: -0.39. The value for GGAAGACCUUGAAUUCCAGTT against Tspan31 was active: 2.87; that for GGAUAAGAAGAAAUGUCUGTT against Septin6 was inactive: -0.69; that for CGUUAGUGACAUGCUCAUGTT against Olfr517 was inactive: -0.484.

Consider GGAGAUGAGAAGAUGGGCGTT against Ppp1r8, for which the z-score was inactive: 0.0692. The value for CCCACAAGGUUAAGAUAUATT against Col14a1 was inactive: 0.604. With GGGAACUGACAAAUGGAAGTT against Samsn1, the z-score was inactive: -0.0777. For GGAAGCGUAGUAAAAAGAGTT against Ermp1, the z-score is inactive: -0.702. Turning to GCGAUUUGACAACGAGACCTT against Bmp7, the z-score is inactive: 0.899. On to GGGCUAGAUAUUCCAUGCATT against Olfr585, for which the z-score is inactive: -1.82. Regarding GAUCAAUGUGAAGGACAUCTT against Cyp2c50, the z-score was inactive: 1.05. The value for GGAAUUGGCAUGAACGAACTT against Psmd9 was inactive: 1.23; that for GGCCUGUUUUUAAAAAGGATT against Tspan7 was inactive: 0.3. The value for GGAACACCCGGAUUACAAGTT against Sox1 was inactive: 1.81.

As for GGAGAUCAACAGGAUUUUGTT against Gna15, the z-score is inactive: -1.35. Consider GGAUGCUCUGAAGAGACAUTT against Olfr493, for which the z-score was inactive: -0.0892. Take CCCUAGACUUGAGAGUUUUTT against Eif2s1: the z-score was inactive: 1.29.

For the sequence “GGUUUCCUUUGUCUGUUUUTT against 9530091C08Rik”, the z-score was inactive: -0.509.

In the case of CCUAAUAGUACCAACAAAATT against Nxf2, the z-score was inactive: 0.217.

On to CGGAAUCAUACAUUGGUUCTT against Zfp217, for which the z-score was inactive: 1.22.

On to CCUACGCCAAGCAGUAUGATT against Mcm3, for which the z-score is inactive: 0.286. On to GGUCUUCUUCGUGUUCAUCTT against Olfr281, for which the z-score was inactive: -0.0815. The value for CCCGAUGAGAGACAUUUUATT against Rrm2 was inactive: -0.547; that for GGUUGAGGACAUAAGACCCTT against Vwa1 was inactive: -1.63; that for GCUACAUUUCAUCAGCAAATT against Gzf1 was inactive: 0.168. The value for GCAUGCCUAAAUUUGGGACTT against Fyb was inactive: 0.805; that for GGGUGCUUAAUAAACAUAATT against Slc22a8 was inactive: 0.65. The value for GGUACUCAAGGUAGGCUGCTT against Oasl1 was inactive: -0.28.

With GCUCUAUUCUCCAACUCUGTT against Pof1b, the z-score is inactive: 0.154. In the case of GCAGACAUGAACCGACUCATT against Gid8, the z-score was inactive: -0.614. The value for GGAGUUCAACUAGAUGUGGTT against Bcl2l13 was inactive: -1.2; that for GGGACAGUUUGGUGAAGGCTT against Pear1 was inactive: -0.588; that for CCAGAUCAGAUCCAGUACATT against Gjc1 was inactive: 0.772. Consider GCUGAGGAGGUUGUAUCAUTT against Fundc2, for which the z-score is inactive: 1.55. The value for GCGAAAUGCACCAGAUCAGTT against Kbtbd7 was inactive: -0.426. The value for GGGUUUCCUUAUGAGAAAGTT against Mien1 was inactive: -0.606; that for GCCAAGAAAGAUCAUUGACTT against Far2 was inactive: -0.703; that for “GGCUGUUACAAGAACGUAGTT against 5031434C07Rik” was inactive: -1.99. As for “GGAUUAUGGACCUCUUGGUTT against 4930595M18Rik”, the z-score is inactive: 0.554. The value for GUGGAAGAAGGAAAAGCCCTT against Lrp2bp was inactive: 1.06.

On to GGAGCGAUUCACAAAUUACTT against Tapt1, for which the z-score was active: 3.05. The value for CCCAAUUCAGGUUUUUAACTT against Midn was inactive: 0.989; that for GGAUAUUGGUGGCACUUUATT against Med6 was inactive: -0.315.

With GGCAUCAAUGAGUUCGCAUTT against Slc45a1, the z-score is inactive: -0.818. Turning to UCCUUCAUUUGAAUGCAAGTT against H2bu1-ps, the z-score was inactive: -0.304. For the sequence CGUGGUAGACACUGUGGUATT against Plin1, the z-score was inactive: 1.61.

Take GGCAAUGGUUCAGCAGUGGTT against Eef1e1: the z-score was inactive: -0.564.

For the sequence GGGAUUCUGAGCUUUCUGGTT against Bpifa5, the z-score is inactive: -0.909. The value for CCUCUUCACUAUAGCACUCTT against Olfr1019 was inactive: -0.718. The value for GCUCUGCUAUCGUGAUCUGTT against Kctd13 was inactive: 1.68; that for GCUGGUAUACGAGACCGUATT against Fshb was inactive: 1.05. The value for GGCUUUUAGAUUCAACGGCTT against Sun2 was inactive: 1.53.

GGUCCUACAUCUCCUUCGATT against Cars: the z-score was inactive: -0.194. The value for GGAUAAUGUGGAUAGAACUTT against Slco1a5 was inactive: 1.38; that for CGGCUACAACACAUACGCCTT against Fgf22 was inactive: 0.00337; that for GGCUACUGUAGGAAGAAAUTT against Defb20 was inactive: 1.7. Take GGACUGGUACAAGACAAUGTT against Sorbs2: the z-score was inactive: 0.532.

Consider GGUUCCUUAUUGGUUUCAGTT against Fpr2, for which the z-score is inactive: 1.5.

For GGAAACACCUAUCUUCUGGTT against Npdc1, the z-score is inactive: -0.0666.

As to GGAGGUUAUGAUUCUUCACTT against Fn3krp, the z-score is inactive: 0.924. The value for CCCUGUAAAGAUCGAGAAGTT against Zfp296 was inactive: 0.241; that for GGAACACCAUAUGAAGGCGTT against Ube2h was inactive: 1.97. GGGUUGUCCUGAACUUUAATT against Npr1: the z-score was inactive: 0.236.

As for GCCUAGGGUUUCUGAAAUGTT against Rpe, the z-score is inactive: 0.249.

For the sequence GCUGCUGAAUUGAAUCAUCTT against Krtap4-7, the z-score was inactive: 0.933. With GCCACCAGUGAAUAAUACATT against Hyal6, the z-score was inactive: 0.459.

Turning to GGAAGCUCGACGGAAGUUCTT against Sik3, the z-score was inactive: -1.45. The value for GGUCUUUUAGAGUAGGAUUTT against Ranbp3l was inactive: -0.32; that for GCCAAUUAGCAUAUUUCAUTT against Slc16a4 was inactive: 1.53.

For GCAGCUACGUAUACCAUGUTT against Gfm1, the z-score was inactive: -0.788.

Regarding GGAGCAAUGUGUUUUCUCUTT against Ppnr, the z-score is inactive: -1.36. The value for CCUCGUCUUAUUGAGGCUCTT against Dhrs1 was inactive: -0.537; that for GGUCAUCGAAUCUGGAGUATT against Pyroxd1 was inactive: -0.282. The value for GGCAUCUCCCACAUUAGAGTT against Sell was inactive: 0.949; that for GGAAGACUUGGCUACACAATT against Rab40c was inactive: -1.04; that for GGCAAAAGACUGGUUUUGUTT against Nr2f2 was inactive: 1.54. The value for CCUAAAAGACUUUGGAGACTT against Arg2 was inactive: -1.09. CCUCCUCUCUUACUACGAGTT against Nab2: the z-score is inactive: 0.487. Consider GCUAAUUUCUUGAGAAGCGTT against Dek, for which the z-score is inactive: -0.0181. The value for GGAGCUGCUCCCUCUAAUATT against Cbr1 was inactive: -1.24; that for GGAACUAGAGCUGAUAAUATT against Smurf1 was inactive: 0.155; that for GGAGCUUGAAAUGCUUGGUTT against Psmg1 was inactive: -1.01.

In the case of GCAGGAGGUUCGUGAUAUUTT against Pck2, the z-score was inactive: -0.498. Take GGUUGGUGCUGGCUAACAUTT against Gabra2: the z-score is inactive: -0.995.

The values are drawn from PubChem BioAssay AID1508600 (Functional Genomics Laboratory (NCATS/FGL), 2020).
